Patent publication US6117661A, “Mutant mono-oxygenase cytochrome P450cam” (BG plc, priority 1995, dated 2000)
At least one compound was matched to its structure with a doubt left.

The chains behind the UniProt entries cited, without tags or fusion partners. Residues count along the entry.
UniProt P00183, 2-415 Y97A/C335A: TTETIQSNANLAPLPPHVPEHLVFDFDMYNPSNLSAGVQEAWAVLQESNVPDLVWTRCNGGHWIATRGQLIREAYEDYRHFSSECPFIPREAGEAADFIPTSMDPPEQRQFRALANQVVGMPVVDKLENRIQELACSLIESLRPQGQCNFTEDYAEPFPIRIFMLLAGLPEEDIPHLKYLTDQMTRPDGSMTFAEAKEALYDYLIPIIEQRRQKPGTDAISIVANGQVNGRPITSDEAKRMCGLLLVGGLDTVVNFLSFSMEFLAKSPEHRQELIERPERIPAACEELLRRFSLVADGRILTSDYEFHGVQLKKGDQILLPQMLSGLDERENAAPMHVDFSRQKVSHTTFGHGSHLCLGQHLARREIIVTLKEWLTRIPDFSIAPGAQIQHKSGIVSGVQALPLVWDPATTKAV

What was measured:
P450cam Mutant Y96A = P450cam Mutant Y96A (Pseudomonas putida, UniProt P00183, C335A/Y97A); format: binding, P. putida
Wild type P450cam [1] = target: T1, Wild type P450cam (Pseudomonas putida, UniProt P00183); format: binding, P. putida
[2] = target: T2, P450cam Y96A (also contains the C334A mutation) (Pseudomonas putida, UniProt P00183, C335A/Y97A); format: biochemical, P. putida; details: substrate lindane
T2 construct: reconstituted with putidaredoxin and putidaredoxin reductase
Experimental: (§1) A buffered solution (50 mM Tris.HCI, pH 7.4), typically 3 ml in volume, containing 10 uM putidaredoxin, 2 uM putidaredoxin reductase, 1 uM cytochrome P-450cam mono-oxygenase (wild-type or mutant), 200 mM KCI, 50 ug/ml bovine liver catalase (Sigma), and 1 mM target organic compound such as cyclohexylbenzene (added as a 0.1 M stock in ethanol) was preincubated at 30° C. for 5 minutes. The enzymatic reaction was initiated by adding NADH to a total concentration of 2 mM. Further four aliquots of NADH (to increase the NADH concentration by 1 mM each time) were added in intervals of 10 minutes, and 30 minutes into the incubation one aliquot of substrate (to increase the concentration by 1 mM) was also added. The reaction was quenched after 60 minutes by adding 0.5 ml chloroform and vortexing the mixture. The phases were separated by centrifugation (4000 g) at 4° C. The chloroform layer was analyzed by gas chromatography.
(§2) The NADH concentration can be monitored at 340 nm and, in all cases, more substrates and NADH are added during the incubation.
(§3) Turnover rate measured as NADH consumption rate
(§4) (nmole NADH/nmole P450cam/s).

Wild type P450cam [3] = target: T1, Wild type P450cam; test: Turnover rate measured as NADH consumption rate; format: biochemical, P. putida; details: substrate lindane
Experimental: as §1, §2, §3, §4

P450cam WT = target: T3, P450cam WT (Pseudomonas putida, UniProt P00183); test: Product distribution following oxidation of substrates (GC); format: biochemical, P. putida; details: substrate phenylcyclohexene
T3 construct: reconstituted with putidaredoxin and putidaredoxin reductase
Experimental: as §1
(§5) For many substrate compounds such as cyclohexylbenzene for which not all the P-450cam-mediated oxidation products are commercially available, the chloroform extracts are evaporated to dryness under a stream of nitrogen. […]
as §2

[4] = target: T4, P450cam active site mutant Y96A (also C334A) (Pseudomonas putida, UniProt P00183, C335A/Y97A); format: biochemical, P. putida; details: substrate phenylcyclohexene
T4 construct: reconstituted with putidaredoxin and putidaredoxin reductase
Experimental: as §1, §5, §2

| Structure (SMILES) | Mutant Y96A Vs DTT (P450cam Mutant Y96A) | Wild type Vs DTT (Wild type P450cam [1]) | other results |
| --- | --- | --- | --- |
| CC(=O)Oc1cccc2ccccc12 [1-Naphthylacetate] | 5 | 5 | – |
| CC(=O)Oc1ccc2ccccc2c1 [2-Naphthylacetate] | 5 | 5 | – |
| Cl[C@H]1[C@H](Cl)[C@@H](Cl)[C@@H](Cl)[C@H](Cl)[C@H]1Cl [Lindane, hexachlorocyclohexane] | – | – | Turnover rate Y96A [2]: 43.5 nmole NADH (nmoleP450)^-1 s^-1; Turnover rate WT (Wild type P450cam [3]): 7.5 nmole NADH (nmoleP450)^-1 s^-1 |
| O=C(c1ccccc1)c1ccc2ccccc2c1 [Naphthylphenylketone] | 5 | 5 | – |
| C1=C(c2ccccc2)CCCC1 [Phenylcyclohexene] | – | – | Total products WT (P450cam WT): 42 area/10^6; Total products Y96A [4]: 36 area/10^6 |
